PubChem BioAssay AID1259424 – University of Nebraska Medical Center – 2018

Test: 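Rank knockdowns across the genome by resemblance to the KSR1 depletion profile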 (primary screen)
Cells: human HCT116 colon cancer cells
Knock-down reagent: siRNA pool against human genes, 50 nM
Measurement: 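Log2 levels of six mRNAs (branched-DNA multiplex), adjusted by two reference genes and the non-targeting median, then scored against the average KSR1 knockdown pattern as Pearson r and euclidean distance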
Reading the numbers: mean correlation with KSR1 profile and KSR1 correlation: higher = expression change more like KSR1 knockdown; mean distance from KSR1 profile: higher = expression change less like KSR1 knockdown
Here is a random part of about 14,000 reagents. 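Higher correlation or smaller distance means closer resemblance to KSR1 loss; control wells, including KSR1 knockdowns, recur on many plates.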 The record does not give: the time to read-out.

no.	gene knocked down	PubChem SID	mean correlation with KSR1 profile	mean distance from KSR1 profile	KSR1 correlation, replicate 1	KSR1 correlation, replicate 2	KSR1 correlation, replicate 3
1	ZNF44	SID363999992	0.127	1.71	0.187	0.254	0.0421
2	DPF3	SID363998026	0.281	0.808	0.149	0.328	0.078
3	RCCD1	SID364005421	0.512	2.07	0.285	0.374	0.675
4	IP6K1	SID364004766	0.951	0.965	0.632	0.723	0.949
5	LY6E	SID363993530	-0.287	2.84	-0.462	-0.519	0.373
6	BTBD2	SID364000534	-0.75	2.04	-0.762	-0.685	-0.833
7	DUSP15	SID364004487	0.353	1.06	0.272	0.314	0.441
8	SNX9	SID363999962	0.571	2.27	0.539	0.527	0.626
9	PAX6	SID363991612	-0.0607	3.37	-0.0522	-0.0866	-0.147
10	ATG2A	SID364005336	0.632	1.85	0.797	0.556	0.365
11	PPP1R3A	SID363993870	-0.727	1.62	-0.768	-0.604	-0.674
12	ZDHHC2	SID364000053	-0.146	3.8	-0.153	-0.0902	-0.0388
13	FBN2	SID363993211	-0.24	2.21	-0.111	-0.336	-0.326
14	CDH6	SID363995876	0.403	1.5	0.384	0.483	0.424
15	PCCB	SID363991855	-0.123	3.25	-0.113	-0.125	-0.203
16	MIGA2	SID364004189	-0.346	3.06	-0.4	-0.261	-0.437
17	ARHGAP15	SID364001090	0.0289	1.43	-0.00284	0.12	0.226
18	SLC37A4	SID363992729	0.195	1.58	0.128	-0.0626	0.243
19	ARID4B	SID364000072	0.0954	1.52	-0.104	0.0842	-0.0153
20	ZNF507	SID364005542	-0.577	2.32	-0.482	-0.687	-0.151
21	LRP2BP	SID364001049	-0.197	3.93	-0.143	-0.218	-0.213

5 consecutive records from above, quoted:
no.	gene knocked down	PubChem SID	mean correlation with KSR1 profile	mean distance from KSR1 profile	KSR1 correlation, replicate 1	KSR1 correlation, replicate 2	KSR1 correlation, replicate 3
7	DUSP15	SID364004487	0.353	1.06	0.272	0.314	0.441
8	SNX9	SID363999962	0.571	2.27	0.539	0.527	0.626
9	PAX6	SID363991612	-0.0607	3.37	-0.0522	-0.0866	-0.147
10	ATG2A	SID364005336	0.632	1.85	0.797	0.556	0.365
11	PPP1R3A	SID363993870	-0.727	1.62	-0.768	-0.604	-0.674

Continued:
no.	gene knocked down	PubChem SID	mean correlation with KSR1 profile	mean distance from KSR1 profile	KSR1 correlation, replicate 1	KSR1 correlation, replicate 2	KSR1 correlation, replicate 3
22	THSD7A	SID364005475	-0.597	2.68	-0.556	-0.742	-0.624
23	SLC67A1	SID363993724	-0.22	1.8	-0.0228	-0.205	0.315
24	GNPTAB	SID364002786	-0.225	2.48	-0.403	-0.356	-0.185
25	DGKB	SID363995090	0.215	2.16	0.26	0.163	-0.287
26	ADGRE1	SID363993186	0.812	0.952	0.826	0.731	0.771
27	NPR3	SID363992193	0.573	2.74	0.461	0.754	0.614
28	NPR3	SID364002873	0.705	1.04	0.798	0.634	0.672
29	FAF2	SID363998983	-0.847	1.66	-0.815	-0.777	-0.662
30	RCOR1	SID363999333	0.596	1.28	0.372	0.749	0.474
31	ROR1	SID363995951	0.437	1.89	0.561	0.74	-0.196
32	SHANK1	SID363999912	-0.193	1.78	-0.121	-0.0895	-0.132
33	MAPK11	SID363993909	0.74	1.06	0.922	0.616	-0.135
34	NEK9	SID364004325	0.664	1.67	0.812	0.336	0.545
